# The supplement of paper PMC6411743
# Protein sequences, listed by entry. Tags and fused reporters are not part of them. Lines headed by an entry give the natural chain unless they say otherwise; changes in a name come on top.
# UniProt B7ZVY7, whole entry, looked up: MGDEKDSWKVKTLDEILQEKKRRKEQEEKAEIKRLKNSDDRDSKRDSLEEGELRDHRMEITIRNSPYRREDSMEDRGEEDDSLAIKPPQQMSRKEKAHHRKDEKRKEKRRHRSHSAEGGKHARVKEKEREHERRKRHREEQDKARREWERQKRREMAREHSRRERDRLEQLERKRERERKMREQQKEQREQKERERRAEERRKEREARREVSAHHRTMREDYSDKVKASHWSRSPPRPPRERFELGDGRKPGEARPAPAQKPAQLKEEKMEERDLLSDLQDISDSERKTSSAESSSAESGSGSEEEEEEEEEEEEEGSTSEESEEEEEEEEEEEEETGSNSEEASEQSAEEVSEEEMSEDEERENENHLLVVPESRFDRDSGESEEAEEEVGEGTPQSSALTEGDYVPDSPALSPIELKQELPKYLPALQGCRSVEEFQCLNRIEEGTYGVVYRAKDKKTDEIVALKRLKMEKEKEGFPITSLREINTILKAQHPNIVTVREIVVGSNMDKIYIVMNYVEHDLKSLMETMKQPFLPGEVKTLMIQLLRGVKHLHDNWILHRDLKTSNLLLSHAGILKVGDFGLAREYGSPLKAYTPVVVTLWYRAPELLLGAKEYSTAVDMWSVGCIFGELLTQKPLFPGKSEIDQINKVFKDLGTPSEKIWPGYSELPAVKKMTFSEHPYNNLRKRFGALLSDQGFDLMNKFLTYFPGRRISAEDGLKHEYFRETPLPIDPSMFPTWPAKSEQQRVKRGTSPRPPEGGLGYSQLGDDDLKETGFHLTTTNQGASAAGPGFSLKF
# UniProt O75818: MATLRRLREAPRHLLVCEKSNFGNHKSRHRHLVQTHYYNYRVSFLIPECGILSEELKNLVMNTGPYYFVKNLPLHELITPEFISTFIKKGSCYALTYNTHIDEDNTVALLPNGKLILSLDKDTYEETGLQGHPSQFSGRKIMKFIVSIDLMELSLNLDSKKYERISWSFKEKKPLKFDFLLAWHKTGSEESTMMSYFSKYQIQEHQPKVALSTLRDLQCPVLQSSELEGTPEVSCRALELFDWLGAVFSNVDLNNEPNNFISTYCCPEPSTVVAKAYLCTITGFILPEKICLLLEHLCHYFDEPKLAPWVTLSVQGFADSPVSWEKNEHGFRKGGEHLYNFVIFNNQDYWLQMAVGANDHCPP
# UniProt P57768: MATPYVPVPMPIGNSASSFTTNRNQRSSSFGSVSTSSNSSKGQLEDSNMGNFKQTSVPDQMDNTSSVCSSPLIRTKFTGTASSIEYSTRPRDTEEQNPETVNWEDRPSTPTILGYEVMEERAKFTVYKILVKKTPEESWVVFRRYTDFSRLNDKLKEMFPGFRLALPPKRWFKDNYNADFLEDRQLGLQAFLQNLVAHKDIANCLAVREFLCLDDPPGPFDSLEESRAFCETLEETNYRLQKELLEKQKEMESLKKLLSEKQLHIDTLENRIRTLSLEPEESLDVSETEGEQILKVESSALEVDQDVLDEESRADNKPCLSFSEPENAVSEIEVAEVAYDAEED
# UniProt Q7Z6Z7, whole entry: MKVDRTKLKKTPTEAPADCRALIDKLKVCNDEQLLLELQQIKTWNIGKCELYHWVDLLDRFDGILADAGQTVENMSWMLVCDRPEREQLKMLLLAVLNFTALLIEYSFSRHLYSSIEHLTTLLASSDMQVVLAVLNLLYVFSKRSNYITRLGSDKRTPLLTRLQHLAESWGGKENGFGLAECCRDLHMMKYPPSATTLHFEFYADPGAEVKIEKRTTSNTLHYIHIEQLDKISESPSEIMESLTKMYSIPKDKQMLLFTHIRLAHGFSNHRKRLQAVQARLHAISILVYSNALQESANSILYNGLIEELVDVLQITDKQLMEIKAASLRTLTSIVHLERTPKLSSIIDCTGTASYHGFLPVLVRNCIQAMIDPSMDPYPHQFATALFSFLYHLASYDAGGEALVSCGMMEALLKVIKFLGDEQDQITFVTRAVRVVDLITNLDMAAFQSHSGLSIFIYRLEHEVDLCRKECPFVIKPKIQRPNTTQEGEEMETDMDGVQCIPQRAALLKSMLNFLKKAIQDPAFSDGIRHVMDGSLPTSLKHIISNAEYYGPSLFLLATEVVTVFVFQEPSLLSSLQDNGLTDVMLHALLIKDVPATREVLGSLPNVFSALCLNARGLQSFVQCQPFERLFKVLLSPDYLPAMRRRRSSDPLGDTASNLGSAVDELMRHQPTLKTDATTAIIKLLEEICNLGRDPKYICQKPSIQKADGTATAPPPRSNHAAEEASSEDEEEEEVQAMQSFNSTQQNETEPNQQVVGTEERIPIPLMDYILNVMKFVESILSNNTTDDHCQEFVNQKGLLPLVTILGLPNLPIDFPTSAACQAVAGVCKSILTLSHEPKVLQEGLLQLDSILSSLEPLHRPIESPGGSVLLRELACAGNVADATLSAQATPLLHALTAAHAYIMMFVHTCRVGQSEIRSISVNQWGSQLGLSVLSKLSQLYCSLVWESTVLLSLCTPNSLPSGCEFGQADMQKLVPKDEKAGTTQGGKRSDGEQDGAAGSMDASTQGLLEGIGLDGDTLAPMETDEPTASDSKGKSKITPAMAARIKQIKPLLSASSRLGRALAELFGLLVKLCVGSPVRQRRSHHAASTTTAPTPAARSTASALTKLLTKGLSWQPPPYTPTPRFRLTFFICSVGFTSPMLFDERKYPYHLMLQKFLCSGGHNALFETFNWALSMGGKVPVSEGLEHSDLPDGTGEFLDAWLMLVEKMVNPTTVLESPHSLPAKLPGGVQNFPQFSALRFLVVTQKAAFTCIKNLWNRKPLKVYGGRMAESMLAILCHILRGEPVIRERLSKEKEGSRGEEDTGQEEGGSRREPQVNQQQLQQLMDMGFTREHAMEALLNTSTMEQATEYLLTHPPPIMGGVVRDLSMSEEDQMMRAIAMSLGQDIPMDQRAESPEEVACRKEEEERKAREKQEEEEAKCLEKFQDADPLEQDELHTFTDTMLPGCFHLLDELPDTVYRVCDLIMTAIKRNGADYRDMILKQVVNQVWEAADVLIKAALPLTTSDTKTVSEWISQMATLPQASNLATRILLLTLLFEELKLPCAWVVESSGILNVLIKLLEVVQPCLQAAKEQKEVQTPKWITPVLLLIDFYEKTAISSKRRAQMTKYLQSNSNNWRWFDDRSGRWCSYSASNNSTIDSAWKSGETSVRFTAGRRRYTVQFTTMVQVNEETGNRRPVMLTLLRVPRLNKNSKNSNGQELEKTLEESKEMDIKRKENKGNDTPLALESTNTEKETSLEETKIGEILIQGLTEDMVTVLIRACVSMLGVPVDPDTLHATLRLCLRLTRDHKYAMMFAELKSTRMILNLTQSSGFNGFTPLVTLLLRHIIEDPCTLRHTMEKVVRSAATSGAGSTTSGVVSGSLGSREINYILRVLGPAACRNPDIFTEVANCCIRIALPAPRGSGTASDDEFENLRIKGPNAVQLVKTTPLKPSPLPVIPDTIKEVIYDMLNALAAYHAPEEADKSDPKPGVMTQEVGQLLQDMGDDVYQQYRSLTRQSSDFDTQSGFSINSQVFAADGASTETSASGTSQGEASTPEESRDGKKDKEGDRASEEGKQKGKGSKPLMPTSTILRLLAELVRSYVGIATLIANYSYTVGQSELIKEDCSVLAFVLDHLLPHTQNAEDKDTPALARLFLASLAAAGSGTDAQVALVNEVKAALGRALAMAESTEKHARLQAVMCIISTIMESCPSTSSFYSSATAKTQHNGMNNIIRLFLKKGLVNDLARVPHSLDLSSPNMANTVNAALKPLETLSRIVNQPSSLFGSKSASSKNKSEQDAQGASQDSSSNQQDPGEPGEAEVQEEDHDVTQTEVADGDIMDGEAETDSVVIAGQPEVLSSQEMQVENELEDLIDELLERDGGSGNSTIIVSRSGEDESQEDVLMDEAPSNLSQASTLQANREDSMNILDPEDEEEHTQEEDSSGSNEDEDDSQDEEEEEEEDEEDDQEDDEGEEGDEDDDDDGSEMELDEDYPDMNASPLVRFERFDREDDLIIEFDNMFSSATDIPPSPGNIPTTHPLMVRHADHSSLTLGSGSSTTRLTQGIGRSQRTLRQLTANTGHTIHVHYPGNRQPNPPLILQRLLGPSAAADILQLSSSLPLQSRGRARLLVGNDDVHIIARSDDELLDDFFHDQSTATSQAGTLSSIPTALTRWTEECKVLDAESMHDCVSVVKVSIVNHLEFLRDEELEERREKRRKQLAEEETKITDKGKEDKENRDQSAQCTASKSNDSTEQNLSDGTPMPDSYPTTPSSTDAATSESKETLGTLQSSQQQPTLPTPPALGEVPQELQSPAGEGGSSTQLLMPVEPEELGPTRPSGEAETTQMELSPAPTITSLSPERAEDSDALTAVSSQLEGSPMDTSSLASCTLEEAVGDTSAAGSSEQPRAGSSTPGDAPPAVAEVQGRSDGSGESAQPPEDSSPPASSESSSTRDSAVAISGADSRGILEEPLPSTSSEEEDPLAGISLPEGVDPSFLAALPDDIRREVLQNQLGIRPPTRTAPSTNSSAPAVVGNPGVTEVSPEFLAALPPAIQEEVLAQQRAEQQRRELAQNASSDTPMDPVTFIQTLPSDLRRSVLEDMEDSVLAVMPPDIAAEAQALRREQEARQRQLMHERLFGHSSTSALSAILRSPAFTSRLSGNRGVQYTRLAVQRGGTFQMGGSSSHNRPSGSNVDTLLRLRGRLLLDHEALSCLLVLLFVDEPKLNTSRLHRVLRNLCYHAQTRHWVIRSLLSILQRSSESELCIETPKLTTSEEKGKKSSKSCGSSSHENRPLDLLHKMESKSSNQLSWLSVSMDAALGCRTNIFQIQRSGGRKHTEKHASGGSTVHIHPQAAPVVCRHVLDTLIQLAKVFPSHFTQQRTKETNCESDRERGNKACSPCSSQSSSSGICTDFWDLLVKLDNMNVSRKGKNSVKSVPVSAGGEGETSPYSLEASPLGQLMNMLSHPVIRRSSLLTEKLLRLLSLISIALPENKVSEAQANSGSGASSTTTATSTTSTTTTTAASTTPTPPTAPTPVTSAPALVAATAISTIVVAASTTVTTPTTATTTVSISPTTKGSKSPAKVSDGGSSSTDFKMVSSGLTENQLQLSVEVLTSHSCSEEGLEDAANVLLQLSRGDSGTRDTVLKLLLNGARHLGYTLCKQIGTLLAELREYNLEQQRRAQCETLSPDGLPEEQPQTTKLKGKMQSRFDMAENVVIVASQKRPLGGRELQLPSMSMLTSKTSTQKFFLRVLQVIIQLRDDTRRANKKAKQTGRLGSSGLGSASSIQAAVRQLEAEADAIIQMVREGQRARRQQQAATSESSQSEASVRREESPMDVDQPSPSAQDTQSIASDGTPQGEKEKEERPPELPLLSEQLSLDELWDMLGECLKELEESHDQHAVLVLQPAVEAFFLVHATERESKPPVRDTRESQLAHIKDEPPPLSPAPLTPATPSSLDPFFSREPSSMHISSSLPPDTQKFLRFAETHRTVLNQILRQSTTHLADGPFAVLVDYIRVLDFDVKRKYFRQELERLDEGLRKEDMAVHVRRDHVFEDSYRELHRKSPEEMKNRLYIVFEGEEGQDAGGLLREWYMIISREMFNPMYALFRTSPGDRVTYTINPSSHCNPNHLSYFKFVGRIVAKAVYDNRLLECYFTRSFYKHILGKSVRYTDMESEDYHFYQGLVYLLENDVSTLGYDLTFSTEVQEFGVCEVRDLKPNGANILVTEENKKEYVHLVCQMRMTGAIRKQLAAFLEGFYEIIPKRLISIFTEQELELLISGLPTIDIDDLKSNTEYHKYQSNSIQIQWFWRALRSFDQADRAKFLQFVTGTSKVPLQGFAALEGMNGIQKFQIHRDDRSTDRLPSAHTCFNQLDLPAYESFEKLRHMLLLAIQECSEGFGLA
# UniProt P26440: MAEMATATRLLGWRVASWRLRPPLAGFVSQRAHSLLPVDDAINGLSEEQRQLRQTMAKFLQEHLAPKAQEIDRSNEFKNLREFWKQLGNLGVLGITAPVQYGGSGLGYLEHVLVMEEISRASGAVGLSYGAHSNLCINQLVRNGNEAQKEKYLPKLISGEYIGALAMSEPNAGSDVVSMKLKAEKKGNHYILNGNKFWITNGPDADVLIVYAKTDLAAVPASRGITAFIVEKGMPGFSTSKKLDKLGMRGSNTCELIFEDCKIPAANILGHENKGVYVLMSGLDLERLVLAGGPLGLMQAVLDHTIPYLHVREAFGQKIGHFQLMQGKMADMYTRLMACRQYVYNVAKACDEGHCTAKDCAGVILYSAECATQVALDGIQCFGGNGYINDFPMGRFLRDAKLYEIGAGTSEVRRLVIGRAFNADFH
# UniProt Q9NVV0: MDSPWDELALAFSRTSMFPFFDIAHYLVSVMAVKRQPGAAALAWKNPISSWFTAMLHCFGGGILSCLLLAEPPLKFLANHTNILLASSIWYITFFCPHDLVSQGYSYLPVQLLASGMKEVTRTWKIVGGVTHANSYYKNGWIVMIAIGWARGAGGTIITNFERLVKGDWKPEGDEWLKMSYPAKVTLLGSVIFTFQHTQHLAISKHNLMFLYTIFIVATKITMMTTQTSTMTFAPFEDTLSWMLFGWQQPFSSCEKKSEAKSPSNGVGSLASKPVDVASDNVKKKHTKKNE
# ± gives the standard deviation of the averaged measurements. This is one part of the list.
# Compound: Nc1nc2c(ncn2[C@@H]2O[C@H](COP(=O)(O)OP(=O)(O)OP(=O)(O)O)[C@@H](O)[C@H]2O)c(=O)[nH]1 [guanosine triphosphate]
# Assay: NP40-soluble protein abundance relative to vehicle (solubility fold change) (ratio); higher = more soluble protein in presence of GTP
# Summary of the method: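 Values are fold changes against the detergent-processed vehicle, based on vsn-normalised intensities. Jurkat crude lysate was treated at eight concentrations from 0.1 to 10 mM (10 min at room temperature, then 3 min at 37 °C), solubilised with 0.8% NP40 and benzonase, ultracentrifuged and analysed by TMT-labelled LC-MS/MS over three independent experiments.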
Target,NP40-soluble protein abundance (concentration: 0.1mM),NP40-soluble protein abundance (concentration: 0.5mM),NP40-soluble protein abundance (concentration: 1mM),NP40-soluble protein abundance (concentration: 2mM),NP40-soluble protein abundance (concentration: 4mM),NP40-soluble protein abundance (concentration: 6mM),NP40-soluble protein abundance (concentration: 8mM),NP40-soluble protein abundance (concentration: 10mM)
A0A0C4DGZ0 (UniProt P24928),1.08 ± 0.063,1.14 ± 0.12,1.11 ± 0.12,1.17 ± 0.18,1.17 ± 0.18,1.13 ± 0.19,1.11 ± 0.16,1.06 ± 0.15
A0A0B4J1V9|Q9NRZ9 and related entries (UniProt Q9NRZ9),1.04 ± 0.037,1.09 ± 0.014,1.11 ± 0.025,1.123 ± 0.01,1.15 ± 0.018,1.16 ± 0.022,1.16 ± 0.053,1.12 ± 0.04
A0A0D9SEI3|A0A0D9SEN2|A0A0D9SER5|B7ZVY7 and related entries (UniProt P21127+B7ZVY7),0.968 ± 0.025,0.944 ± 0.044,0.958 ± 0.041,0.914 ± 0.046,0.872 ± 0.013,0.899 ± 0.046,0.885 ± 0.062,0.887 ± 0.068
A0A087X1N3|O75818 and related entries (UniProt O75818),1.12 ± 0.064,1.05 ± 0.07,1.01 ± 0.097,1.09 ± 0.11,1.08 ± 0.18,1.05 ± 0.15,1.06 ± 0.095,1.02 ± 0.12
A0A0A6YYA0|Q86XR7-2|Q9Y3B3 and related entries (UniProt Q9Y3B3+Q86XR7),0.96 ± 0.033,0.989 ± 0.12,0.892 ± 0.01,0.926 ± 0.016,0.892 ± 0.038,0.946 ± 0.029,0.922 ± 0.013,0.881 ± 0.041
A0A0J9YW36|Q9NZ72 and related entries (UniProt Q9NZ72),0.8625 ± 0.0031,0.848 ± 0.012,0.951 ± 0.096,0.9315 ± 0.0066,0.877 ± 0.034,0.96 ± 0.1,0.898 ± 0.063,0.942 ± 0.14
UniProt A3KN83 and related entries,0.984 ± 0.056,1.02 ± 0.038,0.948 ± 0.022,0.9619 ± 0.0023,0.93 ± 0.021,0.925 ± 0.0014,0.906 ± 0.035,0.916 ± 0.043
A0A140TA84|A0A140TA86|K7EIR2 and related entries (UniProt Q5XKP0+K7EIR2),0.893 ± 0.021,0.931 ± 0.049,0.9146 ± 0.0011,0.916 ± 0.067,0.896 ± 0.018,0.923 ± 0.027,0.93 ± 0.055,0.907 ± 0.028
A0A0B4J2B4|K7EJ78 and related entries (UniProt P62841),1.05 ± 0.079,1.03 ± 0.11,1.11 ± 0.23,1.05 ± 0.25,0.969 ± 0.27,0.89 ± 0.3,0.861 ± 0.3,0.844 ± 0.3
A0A087X1N2|Q03701 (UniProt Q03701),0.968 ± 0.099,1.04 ± 0.081,1.03 ± 0.048,1.02 ± 0.063,1.07 ± 0.053,1.12 ± 0.045,1.23 ± 0.05,1.39 ± 0.082
A0A0A0MSB8|Q9UPT5-6 (UniProt Q9UPT5),0.973 ± 0.037,0.964 ± 0.05,0.974 ± 0.06,0.964 ± 0.039,0.949 ± 0.035,0.936 ± 0.039,0.971 ± 0.043,0.928 ± 0.037
A0A0C4DGW2|P57768 and related entries (UniProt P57768),0.978 ± 0.045,0.924 ± 0.0066,1.02 ± 0.034,0.931 ± 0.063,0.934 ± 0.1,0.941 ± 0.025,0.959 ± 0.048,0.902 ± 0.016
A0A0A0MSK6|Q13017 and related entries (UniProt Q13017),1.01 ± 0.028,1.04 ± 0.033,1.01 ± 0.076,0.99 ± 0.093,0.99 ± 0.052,0.997 ± 0.085,0.998 ± 0.078,0.979 ± 0.085
A0A0D9SFR6|Q86XP1 and related entries (UniProt Q86XP1),1.02 ± 0.12,1.02 ± 0.13,1.01 ± 0.13,0.937 ± 0.067,0.938 ± 0.1,0.981 ± 0.14,1.01 ± 0.094,0.911 ± 0.092
A0A0A6YYC8|I3L1I5 (UniProt I3L1I5),1.03 ± 0.12,1.28 ± 0.046,1.31 ± 0.22,1.22 ± 0.12,1.28 ± 0.077,1.35 ± 0.068,1.29 ± 0.23,1.31 ± 0.22
A0A087WYY4|F5H7B9 and related entries (UniProt O75386),0.965 ± 0.054,0.993 ± 0.05,0.983 ± 0.015,0.9168 ± 0.0075,1 ± 0.024,0.995 ± 0.054,0.972 ± 0.035,1.04 ± 0.11
A0A087X1S3|Q7Z6Z7-2|Q7Z6Z7 (UniProt Q7Z6Z7),1.03 ± 0.015,1.05 ± 0.011,1.02 ± 0.018,1.04 ± 0.026,1.04 ± 0.028,1.03 ± 0.048,1.04 ± 0.056,1.02 ± 0.037
A0A0G2JIR1|A0A0G2JIS2|A0A0G2JK64|A2ABF8 and related entries (UniProt Q96KQ7),1.19 ± 0.16,1.08 ± 0.12,1.17 ± 0.11,1.15 ± 0.085,1.26 ± 0.082,1.027 ± 0.0025,1.1 ± 0.052,1.18 ± 0.21
A0A0A0MSI2|B3KPJ4 and related entries (UniProt Q8IXK0),0.973 ± 0.032,0.99 ± 0.071,1.09 ± 0.042,1.14 ± 0.03,1.28 ± 0.031,1.34 ± 0.039,1.43 ± 0.043,1.53 ± 0.047
A0A0A0MT83|P26440 (UniProt P26440),1.04 ± 0.025,1.04 ± 0.052,0.971 ± 0.025,0.968 ± 0.04,0.945 ± 0.06,0.947 ± 0.035,0.926 ± 0.0057,0.904 ± 0.033
A0A087WXF0|P51608 and related entries (UniProt P51608),1 ± 0.035,1.03 ± 0.099,1.02 ± 0.069,1.07 ± 0.11,1.1 ± 0.095,1.12 ± 0.12,1.14 ± 0.067,1.18 ± 0.053
A0A0A0MQS1|Q53H96 and related entries (UniProt Q53H96),1.08 ± 0.071,1.07 ± 0.077,1.19 ± 0.11,1.2 ± 0.072,1.2 ± 0.074,1.21 ± 0.079,1.22 ± 0.065,1.17 ± 0.06
A0A0A0MRS4|Q9NVV0 (UniProt Q9NVV0),0.9182 ± 0.0082,0.923 ± 0.024,0.966 ± 0.024,0.982 ± 0.023,1 ± 0.014,0.934 ± 0.041,1.01 ± 0.016,0.965 ± 0.053
UniProt A2RUC4,1.01 ± 0.074,1.01 ± 0.077,0.959 ± 0.038,0.948 ± 0.055,0.9 ± 0.047,0.885 ± 0.018,0.911 ± 0.015,0.855 ± 0.079
A0A0U1RQQ9|Q6P3W7 (UniProt Q6P3W7),1.03 ± 0.011,1.01 ± 0.022,1.006 ± 0.0076,0.955 ± 0.029,0.953 ± 0.058,0.952 ± 0.016,0.9734 ± 0.0085,0.943 ± 0.04

# Already shown: an excerpt of the list.
Target,NP40-soluble protein abundance (concentration: 0.1mM),NP40-soluble protein abundance (concentration: 0.5mM),NP40-soluble protein abundance (concentration: 1mM),NP40-soluble protein abundance (concentration: 2mM),NP40-soluble protein abundance (concentration: 4mM),NP40-soluble protein abundance (concentration: 6mM),NP40-soluble protein abundance (concentration: 8mM),NP40-soluble protein abundance (concentration: 10mM)
A0A140TA84|A0A140TA86|K7EIR2 and related entries (UniProt Q5XKP0+K7EIR2),0.893 ± 0.021,0.931 ± 0.049,0.9146 ± 0.0011,0.916 ± 0.067,0.896 ± 0.018,0.923 ± 0.027,0.93 ± 0.055,0.907 ± 0.028
A0A0B4J2B4|K7EJ78 and related entries (UniProt P62841),1.05 ± 0.079,1.03 ± 0.11,1.11 ± 0.23,1.05 ± 0.25,0.969 ± 0.27,0.89 ± 0.3,0.861 ± 0.3,0.844 ± 0.3
